Results deposited as PubChem BioAssay AID1259291 (Sanger Institute, 2017)
In all, the deposit lists 794 reagents; shown is a random part of them. 15 of all reagents (1.9%) were called active. 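Calls rest on knock-down alone; drug synergy scores do not affect them; drugs added a day post-transfection, DMSO vehicle as comparison.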 No viability above 1 is reported: the scale is capped. Further read-outs or replicates are left out here. Reagent sequences are not shown. Not given: the amount of reagent, the time to read-out.

- Test: 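Find kinase and colorectal-cancer-mutated genes whose loss kills HT29 cells or aids anchor drugs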 (primary screen)
- Cells: HT29 human colorectal cancer cells
- Reagent: siRNA pool against human genes
- Treatment: anchor drugs added a day after transfection: BYL719 at 1 µM, cetuximab at 5 µg/ml or trametinib at 10 nM, or DMSO vehicle alone
- Measured: 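Replicate-averaged viability relative to non-targeting pool, robust z-score based on control wells, plus per-drug synergy score for 1 µM BYL719, 5 µg/ml cetuximab and 10 nM trametinib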
- Reading the numbers: robust z-score, knock-down alone and viability, knock-down alone: higher = more viable cells
- Rule for the call: 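a knock-down alone scoring under -3 on robust z-score is called essential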
- Meaning of the calls: active = essential (knock-down alone); inactive = no change alone

| gene symbol | robust z-score, knock-down alone | viability, knock-down alone (fraction of control) | Call |
| --- | --- | --- | --- |
| SRPK2 (SRSF protein kinase 2) | 0.295 | 0.984 | inactive |
| MPP3 (MAGUK p55 scaffold protein 3) | 0.552 | 1 | inactive |
| PI4KB (phosphatidylinositol 4-kinase beta) | -0.0822 | 0.961 | inactive |
| IRAK1 (interleukin 1 receptor associated kinase 1) | 0.552 | 1 | inactive |
| DAPK3 (death associated protein kinase 3) | 0.487 | 0.996 | inactive |
| CDKN1B (cyclin dependent kinase inhibitor 1B) | 0.552 | 1 | inactive |
| SMC1A (structural maintenance of chromosomes 1A) | 0.552 | 1 | inactive |
| AKAP9 (A-kinase anchoring protein 9) | 0.552 | 1 | inactive |
| NR4A2 (nuclear receptor subfamily 4 group A member 2) | 0.132 | 0.974 | inactive |
| DGKI (diacylglycerol kinase iota) | 0.552 | 1 | inactive |
| CKMT1B (creatine kinase, mitochondrial 1B) | 0.552 | 1 | inactive |
| ATRX (ATRX chromatin remodeler) | 0.000174 | 0.966 | inactive |
| TRIB1 (tribbles pseudokinase 1) | -0.732 | 0.92 | inactive |
| INSR (insulin receptor) | 0.552 | 1 | inactive |
| PLK4 (polo like kinase 4) | -0.281 | 0.948 | inactive |
| PFKP (phosphofructokinase, platelet) | 0.552 | 1 | inactive |
| CAMK4 (calcium/calmodulin dependent protein kinase IV) | 0.552 | 1 | inactive |
| AURKA (aurora kinase A) | -2.79 | 0.793 | inactive |
| LCK (LCK proto-oncogene, Src family tyrosine kinase) | 0.262 | 0.982 | inactive |
| BUB1B (BUB1 mitotic checkpoint serine/threonine kinase B) | -2.45 | 0.814 | inactive |

Records listed so far whose gene name starts with P or p (3):
| gene symbol | robust z-score, knock-down alone | viability, knock-down alone (fraction of control) | Call |
| --- | --- | --- | --- |
| PI4KB (phosphatidylinositol 4-kinase beta) | -0.0822 | 0.961 | inactive |
| PLK4 (polo like kinase 4) | -0.281 | 0.948 | inactive |
| PFKP (phosphofructokinase, platelet) | 0.552 | 1 | inactive |
